{
  "source": "patent EP1103603A2",
  "biological_target": "cytochrome c oxidase core subunit II (CO II) of Gluconobacter oxydans DSM 4025 (Gluconobacter oxydans DSM 4025)",
  "assay": "co-purification from solubilized membranes (DEAE-Toyopearl, hydroxylapatite); single band on native-PAGE, two bands (CO I, CO II) on SDS-PAGE",
  "note": "These are yes or no findings as the source states them, for the method shown. In cells and extracts the contact can be indirect. Binding can be weak; no strength is given. Where a sequence is shown, tags or fusion partners need not be part of it.",
  "data": [
    {"binder": "cytochrome c oxidase core subunit I (CO I) of Gluconobacter oxydans DSM 4025 (enzyme, N-terminal alpha-amino residue blocked by unidentified modification) MADAAIHGHDHHEKQGFFTRWFMSTNHKDIGLLYLVAAGVVGFISVLFTVYMRLELMDPGVQYMCLEGARLIADASQTCTANGHLWNVMVTYHGILMMFFVGIPALFGGFGNYLMPLQIGAPDMAFPRMNNLSFWLFIAGTAMGVASLFAPGGDGQLGSGVGWVLYPPLSTREAGYSMDLAIFAVHLSGASSIMGAINMITTFLNMRAPGMTLHKVPLFSWSIFITAWLILLALPVLAGAITMLLTDRNFGTTFFNPAGGGDPILYQHILWFFGHPEVYIIILPGFGIISHVVSTFSKKPVFGYLPMVYAMVAIGVLGFVVWAHHMYTVGMSLTQQSYFMLATMVIAVPTGIKIFSWIATMWGGSVEFKSPMLWAFGFMFLFTVGGVTGIVLAQAGLDRAYHDTYYVVAHFHYVMSLGAIFAIFAGIYFYMPKFSGRAFPEWAAKLHFWTFFIGANVTFFPQHFLGRQGMPRRYIDYPEAFALWNKVSSYGAFLAFASFLFFIVIFVYTLVAGRRETRPNPWGEFADTLEWTLPSPPPAHTFETLPKRSDWDKHPSH", "values": [
      {"measurement": "binding", "value": "binds"}
    ]}
  ]
}
